In the supplement of paper PMC10849652:
Some of the results follow.

Protein sequences, listed by entry. Tags and fused reporters are not part of them. Lines headed by an entry give the natural chain unless they say otherwise; changes in a name come on top.
UniProt P24666: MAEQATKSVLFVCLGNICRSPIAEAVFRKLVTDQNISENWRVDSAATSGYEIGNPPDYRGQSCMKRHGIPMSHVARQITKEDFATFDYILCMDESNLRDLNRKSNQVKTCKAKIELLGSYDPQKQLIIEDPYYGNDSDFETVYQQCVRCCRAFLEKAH
UniProt P11310: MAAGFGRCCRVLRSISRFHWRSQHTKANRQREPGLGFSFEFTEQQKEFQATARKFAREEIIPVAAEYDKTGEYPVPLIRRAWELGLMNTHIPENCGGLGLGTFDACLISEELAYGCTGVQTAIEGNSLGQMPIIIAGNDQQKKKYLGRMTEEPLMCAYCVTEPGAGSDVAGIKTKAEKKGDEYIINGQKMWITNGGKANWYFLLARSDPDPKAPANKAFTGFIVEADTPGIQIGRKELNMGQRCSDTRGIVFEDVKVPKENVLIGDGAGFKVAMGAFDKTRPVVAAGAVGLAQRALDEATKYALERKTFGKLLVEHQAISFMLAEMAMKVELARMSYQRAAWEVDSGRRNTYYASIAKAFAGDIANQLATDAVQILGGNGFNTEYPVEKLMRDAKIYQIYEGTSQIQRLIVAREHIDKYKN
UniProt P42025, whole entry, looked up: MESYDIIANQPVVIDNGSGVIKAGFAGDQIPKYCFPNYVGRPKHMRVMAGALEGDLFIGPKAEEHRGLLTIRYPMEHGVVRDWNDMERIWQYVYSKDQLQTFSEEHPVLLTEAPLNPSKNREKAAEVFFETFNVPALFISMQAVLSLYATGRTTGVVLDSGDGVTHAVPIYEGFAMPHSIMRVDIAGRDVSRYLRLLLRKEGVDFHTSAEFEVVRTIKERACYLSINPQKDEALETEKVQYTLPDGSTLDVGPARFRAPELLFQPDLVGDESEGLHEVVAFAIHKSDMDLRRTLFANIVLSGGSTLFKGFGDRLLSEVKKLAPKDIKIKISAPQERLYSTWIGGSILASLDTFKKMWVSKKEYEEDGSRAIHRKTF
UniProt Q03154: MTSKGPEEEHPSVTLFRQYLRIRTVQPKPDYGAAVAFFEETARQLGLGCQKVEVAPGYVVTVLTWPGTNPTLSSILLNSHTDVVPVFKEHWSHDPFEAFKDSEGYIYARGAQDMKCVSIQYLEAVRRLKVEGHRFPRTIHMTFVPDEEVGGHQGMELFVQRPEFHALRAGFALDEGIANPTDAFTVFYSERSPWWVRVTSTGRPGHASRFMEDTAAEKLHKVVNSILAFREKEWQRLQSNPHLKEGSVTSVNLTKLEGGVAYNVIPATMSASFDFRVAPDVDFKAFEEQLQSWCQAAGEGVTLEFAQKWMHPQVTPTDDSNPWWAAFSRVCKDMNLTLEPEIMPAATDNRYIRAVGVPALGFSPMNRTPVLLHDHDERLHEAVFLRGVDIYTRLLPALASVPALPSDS
UniProt O00763, whole entry, looked up: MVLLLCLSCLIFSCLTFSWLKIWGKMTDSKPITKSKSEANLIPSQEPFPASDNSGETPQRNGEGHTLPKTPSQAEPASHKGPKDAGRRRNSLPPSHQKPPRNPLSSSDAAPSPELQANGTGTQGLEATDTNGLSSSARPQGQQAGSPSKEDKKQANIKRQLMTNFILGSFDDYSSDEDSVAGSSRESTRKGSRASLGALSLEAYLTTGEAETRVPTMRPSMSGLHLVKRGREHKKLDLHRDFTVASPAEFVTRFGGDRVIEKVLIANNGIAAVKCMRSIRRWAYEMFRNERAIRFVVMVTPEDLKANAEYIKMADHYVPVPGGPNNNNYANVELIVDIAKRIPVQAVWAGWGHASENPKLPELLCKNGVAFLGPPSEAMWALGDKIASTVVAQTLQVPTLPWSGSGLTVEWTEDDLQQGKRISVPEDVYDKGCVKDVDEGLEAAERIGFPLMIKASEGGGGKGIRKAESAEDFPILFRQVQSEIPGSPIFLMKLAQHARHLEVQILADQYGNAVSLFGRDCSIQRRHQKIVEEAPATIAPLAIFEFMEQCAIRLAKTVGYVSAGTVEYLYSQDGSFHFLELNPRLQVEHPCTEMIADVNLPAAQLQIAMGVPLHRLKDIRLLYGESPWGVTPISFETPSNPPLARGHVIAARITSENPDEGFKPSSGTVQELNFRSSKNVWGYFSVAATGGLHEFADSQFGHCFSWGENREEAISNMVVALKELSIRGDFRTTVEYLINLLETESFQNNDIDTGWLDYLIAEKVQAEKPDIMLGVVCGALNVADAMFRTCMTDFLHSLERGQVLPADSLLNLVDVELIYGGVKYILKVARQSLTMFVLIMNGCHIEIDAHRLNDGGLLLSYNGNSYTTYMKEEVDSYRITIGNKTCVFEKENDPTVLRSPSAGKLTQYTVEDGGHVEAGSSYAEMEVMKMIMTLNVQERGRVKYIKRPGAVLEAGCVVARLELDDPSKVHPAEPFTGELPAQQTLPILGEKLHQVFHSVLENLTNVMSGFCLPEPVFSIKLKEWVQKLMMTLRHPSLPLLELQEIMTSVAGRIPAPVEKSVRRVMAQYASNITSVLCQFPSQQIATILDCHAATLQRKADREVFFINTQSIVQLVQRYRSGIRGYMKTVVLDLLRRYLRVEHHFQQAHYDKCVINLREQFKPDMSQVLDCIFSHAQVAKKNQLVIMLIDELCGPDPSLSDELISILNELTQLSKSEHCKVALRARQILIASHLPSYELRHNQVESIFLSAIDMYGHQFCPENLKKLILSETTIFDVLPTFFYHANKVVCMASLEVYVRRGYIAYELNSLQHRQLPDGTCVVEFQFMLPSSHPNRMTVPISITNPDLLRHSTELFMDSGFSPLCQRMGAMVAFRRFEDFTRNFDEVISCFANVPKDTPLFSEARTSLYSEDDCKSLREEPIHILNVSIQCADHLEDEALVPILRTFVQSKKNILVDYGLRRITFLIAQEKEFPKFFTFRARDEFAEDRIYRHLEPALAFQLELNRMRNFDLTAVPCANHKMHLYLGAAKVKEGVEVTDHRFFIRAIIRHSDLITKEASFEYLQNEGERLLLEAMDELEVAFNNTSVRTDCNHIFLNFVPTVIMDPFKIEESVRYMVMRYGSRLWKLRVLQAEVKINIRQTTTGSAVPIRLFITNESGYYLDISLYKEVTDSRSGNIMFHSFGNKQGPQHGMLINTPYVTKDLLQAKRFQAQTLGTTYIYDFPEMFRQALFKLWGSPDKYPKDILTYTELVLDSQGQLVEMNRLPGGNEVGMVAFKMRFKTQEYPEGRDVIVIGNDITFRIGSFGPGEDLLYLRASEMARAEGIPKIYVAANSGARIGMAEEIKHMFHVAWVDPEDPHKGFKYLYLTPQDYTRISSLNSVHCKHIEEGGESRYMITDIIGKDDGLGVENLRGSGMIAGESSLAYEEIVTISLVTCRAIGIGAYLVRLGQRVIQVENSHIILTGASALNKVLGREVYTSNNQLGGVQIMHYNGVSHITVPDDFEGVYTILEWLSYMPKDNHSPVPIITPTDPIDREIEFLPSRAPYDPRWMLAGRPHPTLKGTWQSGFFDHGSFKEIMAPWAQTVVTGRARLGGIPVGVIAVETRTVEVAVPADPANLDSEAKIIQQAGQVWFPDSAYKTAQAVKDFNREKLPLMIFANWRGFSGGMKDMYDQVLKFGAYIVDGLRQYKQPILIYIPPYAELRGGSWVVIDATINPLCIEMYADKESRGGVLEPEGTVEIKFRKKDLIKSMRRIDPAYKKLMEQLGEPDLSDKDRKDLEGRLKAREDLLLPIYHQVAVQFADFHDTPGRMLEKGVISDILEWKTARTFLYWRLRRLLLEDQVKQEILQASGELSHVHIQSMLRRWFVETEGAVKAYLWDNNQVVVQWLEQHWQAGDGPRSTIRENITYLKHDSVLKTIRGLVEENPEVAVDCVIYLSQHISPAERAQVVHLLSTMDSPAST
UniProt O96019, whole entry, looked up: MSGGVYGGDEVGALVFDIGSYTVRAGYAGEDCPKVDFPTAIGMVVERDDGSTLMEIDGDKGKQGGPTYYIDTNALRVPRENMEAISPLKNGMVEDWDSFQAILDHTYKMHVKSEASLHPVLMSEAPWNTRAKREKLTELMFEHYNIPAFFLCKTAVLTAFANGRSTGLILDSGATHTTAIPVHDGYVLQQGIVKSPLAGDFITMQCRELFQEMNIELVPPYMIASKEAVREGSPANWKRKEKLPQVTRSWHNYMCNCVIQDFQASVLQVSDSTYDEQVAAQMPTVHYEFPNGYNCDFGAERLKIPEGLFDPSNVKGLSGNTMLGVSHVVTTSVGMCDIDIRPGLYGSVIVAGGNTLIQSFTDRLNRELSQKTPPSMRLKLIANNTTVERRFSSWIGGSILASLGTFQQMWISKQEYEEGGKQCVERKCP
UniProt Q9ULC5: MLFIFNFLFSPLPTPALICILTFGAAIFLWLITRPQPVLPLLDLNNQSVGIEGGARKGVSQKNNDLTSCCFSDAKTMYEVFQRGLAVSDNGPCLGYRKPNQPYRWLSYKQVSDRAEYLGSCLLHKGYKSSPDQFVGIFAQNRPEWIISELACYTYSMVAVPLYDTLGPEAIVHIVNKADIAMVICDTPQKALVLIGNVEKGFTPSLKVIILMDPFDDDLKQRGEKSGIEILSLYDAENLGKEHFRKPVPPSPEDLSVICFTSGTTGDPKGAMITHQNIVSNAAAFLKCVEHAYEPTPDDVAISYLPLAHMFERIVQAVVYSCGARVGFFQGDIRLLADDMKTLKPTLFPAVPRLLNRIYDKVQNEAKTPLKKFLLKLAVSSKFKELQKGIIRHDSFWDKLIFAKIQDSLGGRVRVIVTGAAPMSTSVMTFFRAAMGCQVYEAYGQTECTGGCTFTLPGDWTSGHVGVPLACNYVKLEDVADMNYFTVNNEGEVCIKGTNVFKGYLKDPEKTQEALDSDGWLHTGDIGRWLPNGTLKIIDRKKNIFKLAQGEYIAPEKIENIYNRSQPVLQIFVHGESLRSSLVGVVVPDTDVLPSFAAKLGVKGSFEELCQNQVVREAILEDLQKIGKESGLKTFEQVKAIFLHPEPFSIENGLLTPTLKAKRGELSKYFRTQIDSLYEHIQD
UniProt Q8N2K0: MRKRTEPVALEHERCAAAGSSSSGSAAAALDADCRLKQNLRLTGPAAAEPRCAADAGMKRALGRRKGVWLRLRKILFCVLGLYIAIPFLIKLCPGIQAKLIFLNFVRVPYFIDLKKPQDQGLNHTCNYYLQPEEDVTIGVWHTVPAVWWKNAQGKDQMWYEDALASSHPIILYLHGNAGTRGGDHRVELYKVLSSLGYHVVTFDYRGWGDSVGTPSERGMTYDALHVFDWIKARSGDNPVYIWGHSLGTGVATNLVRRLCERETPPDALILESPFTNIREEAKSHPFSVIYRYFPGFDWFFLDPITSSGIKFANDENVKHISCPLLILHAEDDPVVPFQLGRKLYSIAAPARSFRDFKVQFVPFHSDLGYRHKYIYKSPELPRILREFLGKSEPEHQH
UniProt Q9BTE6: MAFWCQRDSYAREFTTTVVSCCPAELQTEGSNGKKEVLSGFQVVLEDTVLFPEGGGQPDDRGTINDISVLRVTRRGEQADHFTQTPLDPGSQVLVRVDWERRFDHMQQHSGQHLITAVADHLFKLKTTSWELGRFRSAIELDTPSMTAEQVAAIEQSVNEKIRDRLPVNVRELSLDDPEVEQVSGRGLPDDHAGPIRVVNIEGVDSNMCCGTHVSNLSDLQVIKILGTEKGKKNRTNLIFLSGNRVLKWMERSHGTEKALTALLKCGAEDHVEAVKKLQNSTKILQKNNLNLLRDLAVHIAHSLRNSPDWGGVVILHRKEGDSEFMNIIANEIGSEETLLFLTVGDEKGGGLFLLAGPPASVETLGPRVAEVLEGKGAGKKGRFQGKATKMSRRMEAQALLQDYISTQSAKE
UniProt Q9H845: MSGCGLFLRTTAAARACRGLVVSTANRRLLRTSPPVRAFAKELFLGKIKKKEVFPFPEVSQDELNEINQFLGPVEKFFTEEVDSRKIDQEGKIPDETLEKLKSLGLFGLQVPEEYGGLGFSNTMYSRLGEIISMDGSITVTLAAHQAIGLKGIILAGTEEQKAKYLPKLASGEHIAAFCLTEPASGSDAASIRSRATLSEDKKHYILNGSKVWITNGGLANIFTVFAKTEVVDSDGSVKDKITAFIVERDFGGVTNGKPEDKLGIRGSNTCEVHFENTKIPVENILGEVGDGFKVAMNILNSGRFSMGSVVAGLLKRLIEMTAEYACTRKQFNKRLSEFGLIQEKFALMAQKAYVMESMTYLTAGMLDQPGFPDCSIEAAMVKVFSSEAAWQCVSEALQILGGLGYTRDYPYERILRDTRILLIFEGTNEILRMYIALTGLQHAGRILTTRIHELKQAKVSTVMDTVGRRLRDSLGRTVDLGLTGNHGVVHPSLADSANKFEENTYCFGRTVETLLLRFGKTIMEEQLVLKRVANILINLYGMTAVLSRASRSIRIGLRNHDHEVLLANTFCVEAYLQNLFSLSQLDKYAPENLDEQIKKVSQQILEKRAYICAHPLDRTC

How the values were obtained:
Assay in all cases: log2 fold change, soluble protein after heating vs DMSO (PISA); higher = thermal stabilisation; K562 cells, 10 uM, 30 min; active = over 0.2 and 3.5 SD of the protein, either way, in both replicates (recomputed)
bafetinib = compound: Cc1ccc(NC(=O)c2ccc(CN3CC[C@H](N(C)C)C3)c(C(F)(F)F)c2)cc1Nc1nccc(-c2cncnc2)n1 [bafetinib]
Outline: (§1)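 Quantification of soluble protein used TMTpro 16plex LC-MS/MS, with channel sums equalised. Samples were the supernatant after 21,000xg for 90 min of pooled aliquots from K562 cells (2×10^6 cells/mL) treated with 10 μM compound for 30 min, heated for 3 min over 48°C-58°C, and extracted in PBS with 0.5% NP-40 at 4°C. Values, from duplicates, describe thermal stability against control samples on a log2 fold-change scale.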

[1] = compound: Cc1cccc(CC(=O)N2CCc3c2ccc(-c2cn(C)c4ncnc(N)c24)c3F)n1
Outline: as §1

nilotinib = compound: Cc1cn(-c2cc(NC(=O)c3ccc(C)c(Nc4nccc(-c5cccnc5)n4)c3)cc(C(F)(F)F)c2)cn1 [nilotinib]
Outline: as §1

[2] = compound: Cc1nc(Nc2n[nH]c3c2CN(C(=O)N[C@H](CN(C)C)c2ccccc2)C3(C)C)c2sccc2n1
Outline: as §1

dasatinib = compound: Cc1nc(Nc2ncc(C(=O)Nc3c(C)cccc3Cl)s2)cc(N2CCN(CCO)CC2)n1 [dasatinib]
Outline: as §1

[3] = compound: Cc1ncc(-c2ccnc(Nc3ccc(S(C)(=O)=O)cc3)n2)n1C(C)C
Outline: as §1

[4] = compound: Cn1cc(-c2ccc3c(c2)CCN3C(=O)Cc2cccc(C(F)(F)F)c2)c2c(N)ncnc21
Outline: as §1

[5] = compound: Cn1cc(-c2ccc3nnc(C(F)(F)c4ccc5ncccc5c4)n3n2)cn1
Outline: as §1

tipifarnib = compound: Cn1cncc1[C@@](N)(c1ccc(Cl)cc1)c1ccc2c(c1)c(-c1cccc(Cl)c1)cc(=O)n2C [tipifarnib]
Outline: as §1

mubritinib = compound: FC(F)(F)c1ccc(/C=C/c2nc(COc3ccc(CCCCn4ccnn4)cc3)co2)cc1 [mubritinib]
Outline: as §1

[6] = compound: NC(=O)Nc1cc(-c2cccc(F)c2)sc1C(=O)N[C@H]1CCCNC1
Outline: as §1

[7] = compound: NC(=O)c1cnc(N[C@@H]2CCCC[C@@H]2N)nc1Nc1cccc(-n2nccn2)c1
Outline: as §1

[8] = compound: NC1(c2ccc(-c3nc4ccn5c(=O)[nH]nc5c4cc3-c3ccccc3)cc2)CCC1
Outline: as §1

[9] = compound: NCC(=O)Nc1ccc(-n2nc(C(F)(F)F)cc2-c2ccc3c(ccc4ccccc43)c2)cc1
Outline: as §1

entinostat = compound: Nc1ccccc1NC(=O)c1ccc(CNC(=O)OCc2cccnc2)cc1 [entinostat]
Outline: as §1

vorinostat = compound: O=C(CCCCCCC(=O)Nc1ccccc1)NO [vorinostat]
Outline: as §1

citarinostat = compound: O=C(CCCCCCNC(=O)c1cnc(N(c2ccccc2)c2ccccc2Cl)nc1)NO [citarinostat]
Outline: as §1

silmitasertib = compound: O=C(O)c1ccc2c(c1)nc(Nc1cccc(Cl)c1)c1ccncc12 [silmitasertib]
Outline: as §1

[10] = compound: O=C1NC(=O)C(c2cnc3ccccn23)=C1c1cn2c3c(cc(F)cc13)CN(C(=O)N1CCCCC1)CC2
Outline: as §1

[11] = compound: c1cc(OCCN2CCCCC2)cc(-c2n[nH]c3ccc(-c4nnc[nH]4)cc23)c1
Outline: as §1

| Target | log2 fold change (bafetinib) | log2 fold change [1] | log2 fold change (nilotinib) | log2 fold change [2] | log2 fold change (dasatinib) | log2 fold change [3] | log2 fold change [4] | log2 fold change [5] | log2 fold change (tipifarnib) | log2 fold change (mubritinib) | log2 fold change [6] | log2 fold change [7] | log2 fold change [8] | log2 fold change [9] | log2 fold change (entinostat) | log2 fold change (vorinostat) | log2 fold change (citarinostat) | log2 fold change (silmitasertib) | log2 fold change [10] | log2 fold change [11] |
| --- | --- | --- | --- | --- | --- | --- | --- | --- | --- | --- | --- | --- | --- | --- | --- | --- | --- | --- | --- | --- |
| ACP1 isoform 2 (UniProt P24666) | inactive: 0.037 | inactive: 0.036 | inactive: 0.039 | inactive: -0.063 | inactive: -0.126 | inactive: -0.049 | inactive: -0.044 | inactive: 0.022 | inactive: -0.146 | inactive: 0.042 | inactive: 0.048 | inactive: -0.018 | inactive: -0.086 | inactive: -0.041 | inactive: 0.041 | inactive: 0.159 | inactive: 0.005 | inactive: -0.005 | inactive: -0.149 | inactive: -0.044 |
| ACADM isoform 2 (UniProt P11310) | inactive: -0.073 | inactive: 0.002 | inactive: -0.013 | inactive: 0.025 | inactive: -0.054 | inactive: -0.002 | inactive: 0.039 | inactive: 0.024 | inactive: 0.012 | inactive: 0.016 | inactive: -0.044 | inactive: 0.01 | inactive: -0.024 | inactive: 0.029 | inactive: -0.019 | inactive: -0.007 | inactive: 0.037 | inactive: -0.032 | inactive: -0.101 | inactive: 0.009 |
| ACTR1B (UniProt P42025) | inactive: -0.062 | inactive: -0.221 | inactive: 0.034 | inactive: -0.011 | inactive: 0.034 | inactive: 0.083 | inactive: -0.011 | inactive: 0.003 | inactive: 0.077 | inactive: -0.001 | inactive: 0.075 | inactive: 0.027 | inactive: -0.003 | inactive: 0.004 | inactive: -0.034 | active: 0.459 | inactive: 0.078 | inactive: 0.023 | inactive: 0.06 | inactive: -0.004 |
| ACY1 (UniProt Q03154) | inactive: -0.003 | inactive: -0.019 | inactive: 0.032 | inactive: 0.009 | inactive: 0.018 | inactive: 0.001 | inactive: 0.044 | inactive: 0.008 | inactive: -0.017 | inactive: 0.044 | inactive: 0.08 | inactive: 0.039 | inactive: 0.019 | inactive: 0.014 | inactive: 0.029 | inactive: -0.016 | inactive: 0.029 | inactive: -0.011 | inactive: -0.001 | inactive: -0.034 |
| ACACB (UniProt O00763) | inactive: 0.145 | inactive: -0.021 | inactive: -0.109 | inactive: -0.251 | inactive: -0.03 | inactive: -0.026 | inactive: -0.09 | inactive: -0.059 | inactive: -0.14 | inactive: -0.147 | inactive: -0.02 | inactive: -0.043 | inactive: -0.047 | inactive: 0.084 | inactive: 0.076 | inactive: 0.082 | inactive: 0.131 | inactive: 0.119 | inactive: 0.222 | inactive: -0.01 |
| ACOX1 isoform 2 (UniProt Q15067) | inactive: -0.005 | inactive: -0.04 | inactive: 0.153 | inactive: 0.052 | inactive: -0.007 | inactive: -0.022 | inactive: 0.021 | inactive: 0.029 | inactive: -0.017 | inactive: 0.035 | inactive: 0.003 | inactive: -0.037 | inactive: -0.001 | inactive: 0.004 | inactive: 0.004 | inactive: -0.035 | inactive: 0.03 | inactive: -0.005 | inactive: 0.092 | inactive: -0.046 |
| ACTL6A (UniProt O96019) | inactive: -0.034 | inactive: 0.003 | inactive: 0.007 | inactive: 0.002 | inactive: -0.057 | inactive: -0.056 | inactive: 0.02 | inactive: 0.013 | inactive: -0.036 | inactive: 0.063 | inactive: -0.024 | inactive: -0.052 | inactive: -0.07 | inactive: -0.008 | inactive: -0.012 | inactive: -0.006 | inactive: 0.006 | inactive: -0.035 | inactive: -0.007 | inactive: -0.026 |
| ACSL5 isoform 3 (UniProt Q9ULC5) | active: -0.271 | inactive: -0.01 | inactive: -0.055 | inactive: -0.06 | inactive: 0.062 | inactive: 0.012 | inactive: 0.066 | inactive: 0.007 | inactive: 0.043 | inactive: -0.018 | inactive: -0.007 | inactive: -0.066 | inactive: -0.042 | inactive: -0.184 | inactive: 0.081 | inactive: 0.005 | inactive: -0.035 | inactive: 0.002 | inactive: -0.103 | inactive: -0.052 |
| ACTB, A0A2R8Y793 | inactive: -0.052 | inactive: 0.004 | inactive: -0.003 | inactive: 0.001 | inactive: 0.048 | inactive: 0.009 | inactive: 0.003 | inactive: -0.034 | inactive: -0.015 | inactive: -0.005 | inactive: 0.014 | inactive: 0.011 | inactive: 0.001 | inactive: 0.058 | inactive: -0.017 | inactive: -0.002 | inactive: 0.002 | inactive: -0.011 | inactive: -0.037 | inactive: 0.003 |
| ADAT3 (UniProt Q96EY9) | inactive: -0.112 | inactive: -0.041 | inactive: -0.011 | inactive: 0 | inactive: -0.05 | inactive: -0.02 | inactive: 0.015 | inactive: 0.037 | inactive: -0.004 | inactive: -0.075 | inactive: -0.134 | inactive: -0.049 | inactive: 0.039 | inactive: -0.096 | inactive: -0.038 | inactive: 0.082 | inactive: 0.073 | inactive: -0.136 | inactive: -0.03 | inactive: -0.024 |
| ABHD12 isoform 2 (UniProt Q8N2K0) | inactive: -0.044 | inactive: -0.149 | inactive: 0.066 | inactive: -0.002 | inactive: 0.009 | inactive: 0.026 | inactive: 0 | inactive: 0.021 | inactive: 0.101 | inactive: -0.063 | inactive: 0.036 | inactive: -0.001 | inactive: 0.07 | inactive: -0.006 | inactive: 0.011 | inactive: 0.034 | inactive: -0.015 | inactive: 0.039 | inactive: 0.098 | inactive: -0.096 |
| ACAA2 (UniProt P42765) | inactive: -0.037 | inactive: -0.063 | inactive: 0 | inactive: 0.007 | inactive: 0.048 | inactive: -0.031 | inactive: 0.037 | inactive: 0.04 | inactive: 0.014 | inactive: 0.048 | inactive: -0.012 | inactive: -0.001 | inactive: 0.003 | inactive: -0.004 | inactive: -0.008 | inactive: -0.051 | inactive: -0.039 | inactive: -0.011 | inactive: -0.054 | inactive: 0.014 |
| AARSD1 isoform 3 (UniProt Q9BTE6) | inactive: 0.009 | inactive: 0.065 | inactive: -0.013 | inactive: -0.038 | inactive: -0.062 | inactive: 0.031 | inactive: -0.004 | inactive: 0.002 | inactive: 0.022 | inactive: 0.064 | inactive: -0.051 | inactive: -0.008 | active: -0.214 | inactive: -0.04 | inactive: 0.054 | inactive: -0.113 | inactive: 0.033 | inactive: 0.046 | inactive: 0.008 | inactive: 0.011 |
| ABI1 (UniProt Q8IZP0) | inactive: -0.099 | inactive: 0.036 | inactive: -0.055 | inactive: -0.116 | inactive: -0.12 | inactive: -0.053 | inactive: 0.062 | inactive: 0.005 | inactive: 0.047 | inactive: 0.016 | inactive: -0.016 | inactive: 0.032 | inactive: -0.062 | inactive: -0.009 | inactive: -0.002 | inactive: -0.01 | inactive: -0.016 | inactive: -0.009 | inactive: -0.125 | inactive: -0.09 |
| ACADS (UniProt P16219) | inactive: -0.025 | inactive: -0.015 | inactive: 0.076 | inactive: 0.016 | inactive: -0.091 | inactive: -0.009 | inactive: 0.015 | inactive: -0.024 | inactive: 0.016 | inactive: -0.037 | inactive: 0.025 | inactive: 0.01 | inactive: -0.038 | inactive: 0.055 | inactive: -0.032 | inactive: 0 | inactive: -0.088 | inactive: 0.005 | inactive: -0.029 | inactive: 0.476 |
| ACAD9 (UniProt Q9H845) | inactive: -0.061 | inactive: -0.022 | inactive: 0 | inactive: 0.021 | inactive: 0.125 | inactive: -0.023 | inactive: 0.047 | inactive: 0.014 | inactive: 0.055 | inactive: 0.067 | inactive: -0.009 | inactive: -0.051 | inactive: -0.036 | inactive: -0.012 | inactive: -0.021 | inactive: 0.033 | inactive: 0.035 | inactive: 0.021 | inactive: -0.016 | inactive: 0.007 |

Shown tab-delimited: part of the list above
Target	log2 fold change (bafetinib)	log2 fold change [1]	log2 fold change (nilotinib)	log2 fold change [2]	log2 fold change (dasatinib)	log2 fold change [3]	log2 fold change [4]	log2 fold change [5]	log2 fold change (tipifarnib)	log2 fold change (mubritinib)	log2 fold change [6]	log2 fold change [7]	log2 fold change [8]	log2 fold change [9]	log2 fold change (entinostat)	log2 fold change (vorinostat)	log2 fold change (citarinostat)	log2 fold change (silmitasertib)	log2 fold change [10]	log2 fold change [11]
ACADS (UniProt P16219)	inactive: -0.025	inactive: -0.015	inactive: 0.076	inactive: 0.016	inactive: -0.091	inactive: -0.009	inactive: 0.015	inactive: -0.024	inactive: 0.016	inactive: -0.037	inactive: 0.025	inactive: 0.01	inactive: -0.038	inactive: 0.055	inactive: -0.032	inactive: 0	inactive: -0.088	inactive: 0.005	inactive: -0.029	inactive: 0.476
ACAD9 (UniProt Q9H845)	inactive: -0.061	inactive: -0.022	inactive: 0	inactive: 0.021	inactive: 0.125	inactive: -0.023	inactive: 0.047	inactive: 0.014	inactive: 0.055	inactive: 0.067	inactive: -0.009	inactive: -0.051	inactive: -0.036	inactive: -0.012	inactive: -0.021	inactive: 0.033	inactive: 0.035	inactive: 0.021	inactive: -0.016	inactive: 0.007
